# Data as given in article PMC6262395, “A Rhodococcal Transcriptional Regulatory Mechanism Detects the Common Lactone Ring of AHL Quorum-Sensing Signals and Triggers the Quorum-Quenching Response” (Frontiers in Microbiology, 2018).
# Construct, isoform or probe ends are uncertain for at least one entry. Weaker means in comparison with the reference protein, sequence or condition of that experiment. Tags and fusion partners may be left off the protein sequences shown.
# Target: T1, QsdR (TetR-family repressor) (Rhodococcus erythropolis R138) (UniProt A0A0C2W9F0)
# T1 sequence (looked up): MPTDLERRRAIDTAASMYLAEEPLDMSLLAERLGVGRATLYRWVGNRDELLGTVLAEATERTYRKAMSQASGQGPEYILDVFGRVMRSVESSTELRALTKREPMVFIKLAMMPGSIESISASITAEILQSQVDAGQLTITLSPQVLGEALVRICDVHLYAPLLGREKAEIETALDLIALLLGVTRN
# Assay: EMSA
# Settings: homoserine lactone (HSL), ligand/QsdR ratio 0.1-100, free DNA increases with dose; LightShift Chemiluminescent EMSA Kit (Thermo Scientific) as per manufacturer, 20 ul reaction; pH and temperature not stated; recombinant protein; residues 1-186; protein details: His tag (pET19); label: biotin, 5' end; probe letters rebuilt from the primers and the genome
sequence,measurement,value
GGTAGGCATCGGGACATTCTCTCCGGTTGTCCGGTACTGCACAATTTCGGCGGTCGAACAGAGGTGGGCTTCGGGTGGCTCGAGCCTATTGACGAACCAAGCGACGTGAGACACACTAGCTCATTGTCTCATGTTAGTGATGGCGATCACAGTCAGGGGTTCGATCGATGAG (double strand),binding result,binds more weakly
